Results taken from publication PMC4513986.

Molecular target: LDL receptor-related protein 1 (LRP1) (mouse (endogenous in peritoneal macrophages))
Test: co-IP; WT mouse peritoneal macrophage lysates incubated with antibody (anti-SR-BI, anti-Src or anti-LRP1), then protein A/G magnetic beads; precipitated partner detected by Western blotting

B1: engulfment adaptor PTB domain (GULP) (protein, UniProt Q8K2A1 1-304)
chain: MNRAFSRKKDKTWMHTPEALSKHYIPYNAKFLGSTEVEQPKGTEVVRDAVRKLKFARHIKKSEGQKIPKVELQISIYGVKILEPKTKEVQHNCQLHRISFCADDKTDKRIFTFICKDSESNKHLCFVFDSEKCAEEITLTIGQAFDLAYRKFLESGGKDVETRKQIAGMQKRIQDLETENMELKNKVQDLESRLRTTQVSTSPAHGVTVMSPSTDIFDMIPFSPISHQSPTSARNGTQLPPIPSRSAETKRDLFGAEPFDPFNCGSGDFPPDIQSKLDEMQEGFKMGLTLEGTVFCLDPLDSRC
**Q.** How did the binding turn out when B1 was run?
**A.** binds

Results are given in words; binding and its absence hold for the method and conditions named. Binding seen in cells or lysates may run through a third protein. Binding calls can cover weak binding; strength is not graded here.
